What all share (format): cell-based, Saccharomyces cerevisiae
Holding throughout (design): key: 0: SH3-independent; 1: SH3-dependent PPIs; 2: SH3-inhibited PPIs

The test system of one data set is BOI2. The experiment in a line: DHFR-PCA on solid medium, bait BOI2 (Fig. 1B). The note with it: bait BOI2, label = prey. An excerpt:
(§1) Supplement 41467_2021_21873_MOESM8_ESM.xlsx, sheet "Fig1B" | column: medsize; medrep; Ratio; Score

Another data set concerns BBC1. The experiment in a line: DHFR-PCA on solid medium, bait BBC1 (Fig. 1B). The note with it: bait BBC1, label = prey.
Text: as §1

In the next data set the test system is BUD14. The experiment in a line: DHFR-PCA on solid medium, bait BUD14 (Fig. 1B). The note with it: bait BUD14, label = prey.
Text: as §1

In a further data set the test system is BOI1. The experiment in a line: DHFR-PCA on solid medium, bait BOI1 (Fig. 1B). The note with it: bait BOI1, label = prey.
Text: as §1

No dose or concentration is given here for some results.

“YCR088W (PWATAEYDYDAAEDNELTFVENDKIINIEFVDDDWWLGELEKDGSKGLFPSNYVSLGN)”: the Score with BOI2 and in the data set on BBC1 was 0 in each case.
Consider YBR234C, for which the Score is recorded as 0 with BOI2, 0 in the data set with BBC1 and 1 in the data set on BUD14.
The substance YOR181W showed a Score with BBC1 of 1.
Same read-out and setting: the value for YIL062C was 0.
Take YAL005C: the Score with BOI2 turned out to be 0; with BOI1, 2; in the data set on BBC1, 0; with BUD14, 0.
As for YER155C, the Score with BOI2, in the data set with BOI1 and in the data set with BUD14 was 1 throughout.
YGL206C: the Score with BOI1 and in the data set on BBC1 was 1 throughout.
Consider YLR370C, for which the Score with BBC1 was found to be 0.
Still for that read-out and setting: the value for “YFR024C-A (PKAVALYSFAGEESGDLPFRKGDVITILKKSDSQNDWWTGRVNGREGIFPANYVELV)” was 1.
With “YMR109W (PMFEAAYDFPGSGSPSELPLKKGDVIYITREEPSGWSLGKLLDGSKEGWVPTAYMKPHS)”, the results for the Score with BOI2 and in the data set with BBC1 were 1 and 0, respectively.
Consider YDL229W, for which the Score came out at 0 with BOI2, 2 with BOI1, 0 in the data set with BBC1 and 0 in the data set with BUD14.
In the data set on BBC1, “YDR388W (ETVTALYDYQAQAAGDLSFPAGAVIEIVQRTPDVNEWWTGRYNGQQGVFPGNYVQLNK)” yielded a Score of 1.
Same read-out and setting: with YNL138W the figure was 1.
